At least one read-out could not be matched to a standard name with certainty.
Test system: BALB/c normal liver (BNL) cells
Assay: Hydrogen peroxide cytotoxicity assay in BNL cells
Assay type: cell-based, BALB/c mouse
Conditions: AFEW 100 and 200 μg/mL; kinsenoside 20 and 40 μg/mL; AFEW-1 75 and 150 μg/mL
Procedure: BALB/c normal liver (BNL) cells were purchased from Bioresources Collection and Research Center (Hsinchu, Taiwan). Cell lines were grown in DMEM (Dulbecco's modified Eagle's medium) with 50 IU/mL penicillin, 50 μg/mL streptomycin, 50 IU/mL amphotericin B and 10% fetal bovine serum. For cytotoxicity assays, cells (5×10^3 cells/well) were plated into 96-well culture plates and allowed to attach overnight. The medium was replaced with fresh medium (as control) or with various concentrations of AFEW, AFEW-1 or kinsenoside for 16 hours. The cells were then washed with PBS and further treated with various doses of hydrogen peroxide (0.125-4.00 μM) for 2 hours. After H2O2 cytotoxic treatment, the percentage of viable cells was determined using a CellTiter 96 Aqueous Non-Radioactive Cell Proliferation Assay kit (Promega, Madison, Wis., USA). Reagent solution (20 μt) was added to each well and incubated at 37° C. in humidified 5% CO2 for 1 hour. Then, the absorbance was measured at 490 nm using a 96-well plate reader (Multiskan Spectrum, Labsystem, Thermo Electron Corporation, Finland).
Data from in vivo experiments were treated by one-way analysis of variance and Dunnett's test was applied. The significance level was set at p[…]00.05. […]

O=C1C[C@@H](OC2OC(CO)C(O)C(O)C2O)CO1 (stereo partly drawn) [Kinsenoside, 3-(R)-3-β-D-glucopyranosyloxybutanolide]
Effect of pretreatment on LD50 concentration of H2O2 in BNL cells (in words): markedly increased

Reference: patent publication US9072770B2, “Aqueous extracts of Anoectochilus spp. kinsenoside and pharmaceutical compositions useful for hepatoprotection” (CHINA MEDICAL UNIVERSITY, priority 2007, dated 2015)
